Data from the supplement of paper PMC12823440, “Inhibitors supercharge kinase turnover through native proteolytic circuits” (Nature, 2025).
Counter-ions that a name gives are not always drawn. The list shows a part of the results. The calls rarely recur for the same compound in another form.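 In K562 cells expressing nanoluciferase-fused kinases, luminescence was recorded at 4 h intervals between 2 and 18 h, normalized as percent of control with DMSO at 100% and a positive control at 0%. A significant (2 sigma) signal drop marks a time point as decreased. The authors' rule for a hit is not shown and takes in more than the number of time points.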

Protein sequences, listed by entry. Tags and fused reporters are not part of them. Lines headed by an entry give the natural chain unless they say otherwise; changes in a name come on top.
UniProt Q9UM73: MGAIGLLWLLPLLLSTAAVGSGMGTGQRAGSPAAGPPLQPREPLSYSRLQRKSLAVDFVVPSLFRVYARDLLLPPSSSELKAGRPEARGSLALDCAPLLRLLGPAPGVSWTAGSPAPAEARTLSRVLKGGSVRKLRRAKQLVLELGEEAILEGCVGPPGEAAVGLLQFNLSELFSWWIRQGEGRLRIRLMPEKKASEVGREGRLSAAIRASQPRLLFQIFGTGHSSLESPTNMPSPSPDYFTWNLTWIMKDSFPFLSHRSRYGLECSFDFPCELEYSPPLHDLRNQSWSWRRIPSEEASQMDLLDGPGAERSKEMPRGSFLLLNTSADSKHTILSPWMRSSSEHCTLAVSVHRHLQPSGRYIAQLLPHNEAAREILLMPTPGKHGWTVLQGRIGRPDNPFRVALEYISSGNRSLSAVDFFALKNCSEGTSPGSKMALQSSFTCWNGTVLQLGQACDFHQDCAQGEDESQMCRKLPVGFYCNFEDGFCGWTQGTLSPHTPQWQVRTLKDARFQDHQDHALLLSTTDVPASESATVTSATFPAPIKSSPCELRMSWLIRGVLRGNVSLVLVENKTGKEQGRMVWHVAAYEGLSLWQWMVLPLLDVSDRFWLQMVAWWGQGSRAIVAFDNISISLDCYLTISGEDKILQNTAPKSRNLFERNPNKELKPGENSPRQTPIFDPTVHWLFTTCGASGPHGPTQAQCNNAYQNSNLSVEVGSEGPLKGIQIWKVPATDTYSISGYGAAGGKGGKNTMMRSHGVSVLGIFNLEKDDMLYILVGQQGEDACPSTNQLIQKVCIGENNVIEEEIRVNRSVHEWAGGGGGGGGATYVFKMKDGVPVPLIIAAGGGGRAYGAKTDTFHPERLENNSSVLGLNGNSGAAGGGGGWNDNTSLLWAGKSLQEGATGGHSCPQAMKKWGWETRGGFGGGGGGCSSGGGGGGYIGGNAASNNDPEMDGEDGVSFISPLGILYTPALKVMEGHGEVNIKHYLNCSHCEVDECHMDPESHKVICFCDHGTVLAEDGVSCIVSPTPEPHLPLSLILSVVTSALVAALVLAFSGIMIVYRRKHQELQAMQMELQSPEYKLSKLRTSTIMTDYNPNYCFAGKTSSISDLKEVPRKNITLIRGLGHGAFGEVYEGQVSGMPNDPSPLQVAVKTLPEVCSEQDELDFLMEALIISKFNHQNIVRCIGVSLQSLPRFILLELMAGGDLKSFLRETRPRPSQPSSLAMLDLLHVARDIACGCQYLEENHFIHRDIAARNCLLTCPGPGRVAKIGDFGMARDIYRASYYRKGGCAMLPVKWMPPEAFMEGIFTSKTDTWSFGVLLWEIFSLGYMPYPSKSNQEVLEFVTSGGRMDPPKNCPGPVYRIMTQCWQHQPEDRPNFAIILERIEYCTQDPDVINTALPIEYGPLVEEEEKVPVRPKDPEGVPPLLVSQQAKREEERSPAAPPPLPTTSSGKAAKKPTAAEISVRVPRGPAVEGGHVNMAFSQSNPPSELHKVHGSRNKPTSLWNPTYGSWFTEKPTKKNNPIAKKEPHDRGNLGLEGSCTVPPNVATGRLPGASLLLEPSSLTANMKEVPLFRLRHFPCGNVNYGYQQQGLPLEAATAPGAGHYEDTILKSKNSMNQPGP
UniProt P10398: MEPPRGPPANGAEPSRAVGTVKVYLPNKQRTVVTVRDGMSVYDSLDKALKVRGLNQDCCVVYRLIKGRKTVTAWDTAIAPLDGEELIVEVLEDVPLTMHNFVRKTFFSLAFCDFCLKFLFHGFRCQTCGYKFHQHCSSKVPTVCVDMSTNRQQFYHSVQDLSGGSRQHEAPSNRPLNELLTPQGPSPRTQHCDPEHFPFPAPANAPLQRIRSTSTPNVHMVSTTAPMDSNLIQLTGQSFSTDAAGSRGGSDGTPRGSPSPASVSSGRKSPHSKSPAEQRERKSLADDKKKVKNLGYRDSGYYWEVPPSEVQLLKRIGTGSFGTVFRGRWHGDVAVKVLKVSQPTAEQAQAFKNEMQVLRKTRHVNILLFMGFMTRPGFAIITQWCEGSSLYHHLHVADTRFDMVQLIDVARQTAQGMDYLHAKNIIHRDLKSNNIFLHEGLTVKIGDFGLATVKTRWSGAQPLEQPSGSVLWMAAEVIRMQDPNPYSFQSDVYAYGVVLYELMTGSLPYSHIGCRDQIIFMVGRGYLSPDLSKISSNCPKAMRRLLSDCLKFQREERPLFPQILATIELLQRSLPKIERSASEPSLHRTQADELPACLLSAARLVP
UniProt Q9UQB9: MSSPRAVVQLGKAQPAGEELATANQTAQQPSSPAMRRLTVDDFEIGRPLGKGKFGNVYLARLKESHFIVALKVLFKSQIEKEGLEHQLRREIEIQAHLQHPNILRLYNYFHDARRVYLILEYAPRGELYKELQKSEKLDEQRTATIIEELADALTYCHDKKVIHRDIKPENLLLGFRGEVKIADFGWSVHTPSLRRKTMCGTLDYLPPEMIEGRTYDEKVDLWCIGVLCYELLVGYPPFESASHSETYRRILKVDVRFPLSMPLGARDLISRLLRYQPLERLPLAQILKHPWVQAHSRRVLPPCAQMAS
UniProt P51451: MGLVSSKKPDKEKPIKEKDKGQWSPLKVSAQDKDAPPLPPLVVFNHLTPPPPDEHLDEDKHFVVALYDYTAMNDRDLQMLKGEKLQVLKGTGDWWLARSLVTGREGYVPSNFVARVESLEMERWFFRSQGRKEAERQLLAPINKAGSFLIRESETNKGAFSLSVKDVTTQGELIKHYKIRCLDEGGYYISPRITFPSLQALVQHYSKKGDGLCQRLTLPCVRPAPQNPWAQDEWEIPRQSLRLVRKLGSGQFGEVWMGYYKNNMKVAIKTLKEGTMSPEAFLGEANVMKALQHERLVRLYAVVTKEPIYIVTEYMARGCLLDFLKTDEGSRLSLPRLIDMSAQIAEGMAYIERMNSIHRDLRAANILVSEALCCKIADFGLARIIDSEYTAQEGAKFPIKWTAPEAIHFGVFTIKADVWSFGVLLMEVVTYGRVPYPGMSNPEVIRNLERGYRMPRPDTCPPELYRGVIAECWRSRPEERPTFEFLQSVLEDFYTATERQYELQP
UniProt P51813: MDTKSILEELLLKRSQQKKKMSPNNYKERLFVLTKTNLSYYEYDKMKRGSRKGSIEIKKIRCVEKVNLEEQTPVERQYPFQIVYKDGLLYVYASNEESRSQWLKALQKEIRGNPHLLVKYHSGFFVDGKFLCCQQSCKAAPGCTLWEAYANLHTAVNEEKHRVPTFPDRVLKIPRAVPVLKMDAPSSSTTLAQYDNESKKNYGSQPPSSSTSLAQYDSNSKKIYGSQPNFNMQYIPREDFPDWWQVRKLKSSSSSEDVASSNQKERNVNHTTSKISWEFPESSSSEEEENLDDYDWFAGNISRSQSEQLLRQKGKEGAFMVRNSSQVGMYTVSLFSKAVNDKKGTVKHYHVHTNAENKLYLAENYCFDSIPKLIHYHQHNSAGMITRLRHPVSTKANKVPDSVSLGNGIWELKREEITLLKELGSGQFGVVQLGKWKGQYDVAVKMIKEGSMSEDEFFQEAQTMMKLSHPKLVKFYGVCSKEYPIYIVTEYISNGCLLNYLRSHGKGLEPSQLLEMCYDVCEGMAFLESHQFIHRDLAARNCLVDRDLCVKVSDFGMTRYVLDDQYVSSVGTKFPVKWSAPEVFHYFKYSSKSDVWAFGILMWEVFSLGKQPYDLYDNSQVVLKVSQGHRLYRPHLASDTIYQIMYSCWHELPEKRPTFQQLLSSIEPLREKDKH
UniProt Q06187: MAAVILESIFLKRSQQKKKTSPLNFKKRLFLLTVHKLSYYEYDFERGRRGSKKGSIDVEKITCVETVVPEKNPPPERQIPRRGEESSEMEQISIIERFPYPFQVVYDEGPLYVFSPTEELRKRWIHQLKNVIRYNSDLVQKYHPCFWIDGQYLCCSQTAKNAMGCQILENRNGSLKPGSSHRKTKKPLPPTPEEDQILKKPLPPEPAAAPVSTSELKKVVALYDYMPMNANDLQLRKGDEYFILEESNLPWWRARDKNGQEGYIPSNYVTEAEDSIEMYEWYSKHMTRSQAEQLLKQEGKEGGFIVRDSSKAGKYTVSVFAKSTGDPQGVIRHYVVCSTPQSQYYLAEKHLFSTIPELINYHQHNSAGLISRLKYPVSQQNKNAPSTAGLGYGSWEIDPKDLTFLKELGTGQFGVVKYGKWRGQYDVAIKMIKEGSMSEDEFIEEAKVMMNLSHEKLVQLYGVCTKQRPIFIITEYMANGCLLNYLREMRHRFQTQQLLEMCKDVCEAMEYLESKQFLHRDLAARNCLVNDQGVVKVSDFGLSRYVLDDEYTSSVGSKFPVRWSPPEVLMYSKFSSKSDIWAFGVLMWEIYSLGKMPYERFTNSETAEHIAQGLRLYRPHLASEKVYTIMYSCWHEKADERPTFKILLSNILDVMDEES
UniProt Q9UQM7, whole entry: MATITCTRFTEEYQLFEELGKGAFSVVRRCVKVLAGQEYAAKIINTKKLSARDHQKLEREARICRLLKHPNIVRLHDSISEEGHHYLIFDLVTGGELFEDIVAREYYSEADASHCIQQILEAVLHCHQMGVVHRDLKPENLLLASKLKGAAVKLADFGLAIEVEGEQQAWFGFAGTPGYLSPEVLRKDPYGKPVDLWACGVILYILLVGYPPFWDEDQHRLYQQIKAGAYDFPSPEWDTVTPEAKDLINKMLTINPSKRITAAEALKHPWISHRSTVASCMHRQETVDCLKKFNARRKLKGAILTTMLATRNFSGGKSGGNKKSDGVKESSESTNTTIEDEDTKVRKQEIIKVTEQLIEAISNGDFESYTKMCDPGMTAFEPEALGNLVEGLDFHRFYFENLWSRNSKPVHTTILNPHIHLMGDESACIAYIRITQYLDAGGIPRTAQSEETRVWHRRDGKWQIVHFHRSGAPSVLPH
UniProt Q15131: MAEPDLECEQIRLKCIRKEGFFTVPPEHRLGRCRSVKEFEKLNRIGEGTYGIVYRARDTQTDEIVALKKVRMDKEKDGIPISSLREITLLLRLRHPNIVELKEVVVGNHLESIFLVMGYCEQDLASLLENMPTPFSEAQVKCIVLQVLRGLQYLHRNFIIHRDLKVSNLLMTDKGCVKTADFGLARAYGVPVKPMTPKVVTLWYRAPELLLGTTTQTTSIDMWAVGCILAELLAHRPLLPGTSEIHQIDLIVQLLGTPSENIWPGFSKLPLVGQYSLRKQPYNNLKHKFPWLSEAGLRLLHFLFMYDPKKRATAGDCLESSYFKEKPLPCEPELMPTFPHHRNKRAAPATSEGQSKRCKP
UniProt Q00526: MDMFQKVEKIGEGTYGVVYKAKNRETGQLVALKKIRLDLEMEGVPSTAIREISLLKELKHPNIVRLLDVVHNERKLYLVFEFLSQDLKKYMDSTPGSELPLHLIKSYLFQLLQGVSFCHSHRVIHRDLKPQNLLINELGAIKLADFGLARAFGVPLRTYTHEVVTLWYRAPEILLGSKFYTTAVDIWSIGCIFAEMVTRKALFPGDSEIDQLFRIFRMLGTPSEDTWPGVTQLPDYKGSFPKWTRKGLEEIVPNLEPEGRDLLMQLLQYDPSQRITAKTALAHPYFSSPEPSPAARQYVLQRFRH
UniProt Q00535, whole entry, looked up: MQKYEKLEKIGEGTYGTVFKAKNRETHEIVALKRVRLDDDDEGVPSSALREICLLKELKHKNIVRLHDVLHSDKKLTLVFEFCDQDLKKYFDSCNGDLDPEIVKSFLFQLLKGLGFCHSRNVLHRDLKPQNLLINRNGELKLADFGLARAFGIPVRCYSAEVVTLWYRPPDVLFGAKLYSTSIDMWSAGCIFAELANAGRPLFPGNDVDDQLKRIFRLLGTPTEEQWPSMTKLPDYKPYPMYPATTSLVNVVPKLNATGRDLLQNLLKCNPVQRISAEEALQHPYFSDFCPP
UniProt Q00534, whole entry: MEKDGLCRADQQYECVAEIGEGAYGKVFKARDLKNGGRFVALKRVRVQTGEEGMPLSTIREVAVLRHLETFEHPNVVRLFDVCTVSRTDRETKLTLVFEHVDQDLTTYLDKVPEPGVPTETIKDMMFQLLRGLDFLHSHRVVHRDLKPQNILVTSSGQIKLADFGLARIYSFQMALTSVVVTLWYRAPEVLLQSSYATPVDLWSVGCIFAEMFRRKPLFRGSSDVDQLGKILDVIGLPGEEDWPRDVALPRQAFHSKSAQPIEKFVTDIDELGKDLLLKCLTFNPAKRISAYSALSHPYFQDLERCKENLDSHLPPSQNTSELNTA
UniProt P41240: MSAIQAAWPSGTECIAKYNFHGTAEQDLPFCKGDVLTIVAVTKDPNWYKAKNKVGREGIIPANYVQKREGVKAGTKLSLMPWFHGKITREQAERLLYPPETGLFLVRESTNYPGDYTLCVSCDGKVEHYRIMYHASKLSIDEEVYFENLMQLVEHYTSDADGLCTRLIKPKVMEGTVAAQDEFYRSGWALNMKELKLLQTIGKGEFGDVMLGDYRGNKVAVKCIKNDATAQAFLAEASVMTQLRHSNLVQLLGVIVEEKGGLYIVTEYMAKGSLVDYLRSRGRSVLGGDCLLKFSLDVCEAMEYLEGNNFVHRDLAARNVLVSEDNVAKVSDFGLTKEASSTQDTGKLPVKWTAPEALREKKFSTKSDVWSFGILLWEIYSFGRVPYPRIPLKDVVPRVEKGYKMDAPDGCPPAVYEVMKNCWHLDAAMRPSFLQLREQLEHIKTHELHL

Key:
Assay in all cases: number of time points (of 5) at which kinase-Nluc abundance scored as decreased, DMSO-normalised (count); higher = more persistent destabilization
Conditions in all cases: K562; 2-18 h
ALK = ALK (UniProt Q9UM73)
ARAF = ARAF (UniProt P10398)
AURKA = AURKA (UniProt O14965)
AURKB = AURKB (UniProt Q96GD4)
AURKC = AURKC (UniProt Q9UQB9)
BLK = BLK (UniProt P51451)
BMX = BMX (UniProt P51813)
BRAF = BRAF (UniProt P15056)
BRAF_V600E = tested on: BRAF_V600E
BTK = BTK (UniProt Q06187)
CAMK2A = CAMK2A (UniProt Q9UQM7)
CAMK2G = CAMK2G (UniProt Q13555)
CDK10 = CDK10 (UniProt Q15131)
CDK2 = CDK2 (UniProt P24941)
CDK3 = CDK3 (UniProt Q00526)
CDK5 = CDK5 (UniProt Q00535)
CDK6 = CDK6 (UniProt Q00534)
CHEK2 = CHEK2 (UniProt O96017)
CSF1R = CSF1R (UniProt P07333)
CSK = CSK (UniProt P41240)

Measured: number of time points

C[C@@H]1CN(Cc2ccc(F)cc2)[C@@H](C)CN1C(=O)c1cc2c(C(=O)C(=O)N(C)C)cn(C)c2cc1Cl [Talmapimod] (10 µM)
0: all assays above

CCOc1cc(=O)[nH]cc1-c1ccc(CC(=O)Nc2cc(C(C)(C)C(F)(F)F)on2)c(F)c1 (10 µM)
0: all assays above

CCOc1cc(N2CCC(O)CC2)ccc1Nc1ncc2c(n1)N(C1CCCC1)CCC(=O)N2C (2.5 µM)
0: all assays above

CCOC(=O)c1c(N2CCc3ccc(OC)cc3C2)oc(C=C2C=Nc3ncccc32)c1O (10 µM)
0: all assays above

COc1cc2nnc(C(N)=O)c(Nc3ccc(C)cc3F)c2cc1N1CCN(CCO)CC1 (2.5 µM)
0: all assays above

Nc1nc(Nc2ccc3c(c2)CC[C@@H](N2CCCC2)CC3)nn1-c1cc2c(nn1)-c1ccccc1CCC2 [Bemcentinib] (2.5 µM)
0: all assays above

Cc1cc(N2CCOCC2)ccc1Nc1nc(NC2CCCCC2)c2[nH]cnc2n1 (10 µM)
0: all assays above

CCNC(=O)Nc1ccc(-c2nc3c(c(N4CCOC[C@@H]4C)n2)CCN(C2COC2)C3)cc1 (2.5 µM)
4: BRAF_V600E
1: BMX
0: all other assays above

Cc1nc2c(NCc3cccc(S(C)(=O)=O)c3)nccn2c1-c1ccc(O)c(F)c1 (10 µM)
0: all assays above

Nc1ccc(Sc2nc3ccccc3s2)c(Cl)c1 [KRAS inhibitor-9] (10 µM)
0: all assays above

COc1ccc(CCNCc2ccc(OCc3ccc(Cl)nc3)c(OC)c2)cc1OC [SBE13 (Hydrochloride)] (10 µM)
0: all assays above

CC(C)c1cc2c(c(O)c1O)[C@@]13CCCC(C)(C)[C@@H]1C[C@@H]2OC3=O [Carnosol] (2.5 µM)
0: all assays above

CO[C@@H]1[C@H](N(C)C(=O)c2ccccc2)C[C@H]2O[C@]1(C)n1c3ccccc3c3c4c(c5c6ccccc6n2c5c31)C(=O)NC4 [Midostaurin] (2.5 µM)
1: BRAF_V600E
3: BRAF
0: all other assays above

COC(=O)N1CCN(C2CCC(Nc3nc(Nc4cnn(C)c4)nc4ccc(CC#N)nc34)CC2)CC1 (stereo not given) (10 µM)
1: BRAF_V600E
0: all other assays above

Cn1cc(C2=C(c3ccc(Cl)cc3Cl)C(=O)NC2=O)c2ccccc21 (10 µM)
0: all assays above

Nc1ccc(-c2cccc(C(=O)Nc3cnc4nc(N5CCOCC5)oc4c3)n2)cn1 (10 µM)
4: AURKA
0: all other assays above

At a glance, four of the compounds above:
CCOc1cc(=O)[nH]cc1-c1ccc(CC(=O)Nc2cc(C(C)(C)C(F)(F)F)on2)c(F)c1 (10 µM)
0: all assays above

CCOc1cc(N2CCC(O)CC2)ccc1Nc1ncc2c(n1)N(C1CCCC1)CCC(=O)N2C (2.5 µM)
0: all assays above

CCOC(=O)c1c(N2CCc3ccc(OC)cc3C2)oc(C=C2C=Nc3ncccc32)c1O (10 µM)
0: all assays above

COc1cc2nnc(C(N)=O)c(Nc3ccc(C)cc3F)c2cc1N1CCN(CCO)CC1 (2.5 µM)
0: all assays above

Following part.

Cc1ccc(Nc2cc(N[C@@H]3CCCC[C@@H]3N)nnc2C(N)=O)nc1C (2 µM)
0: all assays above

O=C(NCc1ccn[nH]1)c1cc([C@@H]2CCNC[C@H]2COc2ccc3c(c2)OCO3)ccc1F [GRK2-IN-1 (hydrochloride)] (10 µM)
0: all assays above

CC(C)(C)S(=O)(=O)c1cc2c(Nc3ccc4scnc4c3)ncnc2cc1OCCOP(=O)(O)O (2 µM)
0: all assays above

CC1(C)C=Cc2c(ccc(C(=O)/C=C/c3ccc(O)cc3)c2O)O1 [4-Hydroxylonchocarpin] (10 µM)
5: BLK
0: all other assays above

O=c1cc(N2CCOCC2)oc2c(-c3cccc4c3sc3ccccc34)cccc12 (10 µM)
0: all assays above

O=C(COc1ccc(Cl)cc1)NC1CCC(NC(=O)COc2ccc(Cl)cc2)CC1 (stereo not drawn) [ISRIB (trans-isomer)] (10 µM)
0: all assays above

COc1ccc(-c2cc(=O)c3c(O)cc(O)cc3o2)cc1-c1c(O)cc(O)c2c(=O)cc(-c3ccc(O)cc3)oc12 [Bilobetin] (2.5 µM)
0: all assays above

C[C@@H](NC(=O)c1ncnc(N)c1Cl)c1ncc(C(=O)Nc2cc(C(F)(F)F)c(Cl)cn2)s1 (2.5 µM)
1: AURKB | BRAF
2: ALK | AURKA | CAMK2G | CHEK2
3: BMX | BRAF_V600E | CSF1R
0: all other assays above
